Laboratory results: PubChem BioAssay AID504786 (Drosophila RNAi Screening Center, 2011)
The screen tested about 21,000 reagents; below is an unselected part of those with a known target gene and a result. 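Primary screen; positive scores mean lost reporter signal, so the sign may be inverted from the usual convention.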 Further read-outs or replicates are left out here.

Assay: 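Positive regulators of HIF-driven reporter output in Drosophila cells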 (primary screen)
Cells: Drosophila S2 cells with a stable HIF luciferase reporter
Reagent: long dsRNA against Drosophila genes, about 0.2 µg dsRNA per well of a 384-well plate
Duration: three days of knock-down, then 20 h of DFO before reading
Treatment: desferrioxamine (DFO) at 100 µM, an iron chelator that mimics hypoxia, for 20 h
Measured: 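Firefly luciferase driven by the mouse ldh-a hypoxia-response element, measured after 20 h of 100 µM DFO; z-scores per plate, higher means more signal lost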
Reading the numbers: z-score: higher = stronger loss of HIF reporter signal

Rab3-GAP (Rab3 GTPase activating protein) [DRSC02001] → z-score, replicate 1 = -0.4
CG12811 [DRSC14549] → z-score, replicate 1 = -0.3
HmgZ (HMG protein Z) [DRSC03888] → z-score, replicate 1 = 0.9
HmgZ (HMG protein Z) [DRSC04620] → z-score, replicate 1 = 0.2
CG3226 [DRSC18296] → z-score, replicate 1 = -0.2
mat (materazzi) [DRSC08376] → z-score, replicate 1 = -0.3
Lcp65APsi (pseudo) [DRSC08795] → z-score, replicate 1 = 0
Lcp65APsi (pseudo) [DRSC10342] → z-score, replicate 1 = -0.3
CG42582 (retired record) [DRSC20675] → z-score, replicate 1 = 0.5
CIA30 (Complex I intermediate-associated protein, 30 kDa) [DRSC16266] → z-score, replicate 1 = -0.4
Drs (Drosomycin) [DRSC08657] → z-score, replicate 1 = -0.3
hubl (hug-bell) [DRSC06825] → z-score, replicate 1 = -0.3
l(2)efl (lethal (2) essential for life) [DRSC04698] → z-score, replicate 1 = -0.1
CG12061 [DRSC20715] → z-score, replicate 1 = 0
Cipc (Clock interacting protein circadian) [DRSC14898] → z-score, replicate 1 = -0.3
Cipc (Clock interacting protein circadian) [DRSC14900] → z-score, replicate 1 = -0.5
Trmt6 (tRNA methyltransferase 6 non-catalytic subunit) [DRSC03272] → z-score, replicate 1 = -0.4
CG14196 [DRSC19551] → z-score, replicate 1 = -0.3
mew (multiple edematous wings) [DRSC18971] → z-score, replicate 1 = 0
mew (multiple edematous wings) [DRSC20352] → z-score, replicate 1 = -0.4
ATPsynO (ATP synthase, oligomycin sensitivity conferring protein) [DRSC16780] → z-score, replicate 1 = 0.7
insb (insensible) [DRSC06995] → z-score, replicate 1 = -0.3
CG4806 [DRSC04491] → z-score, replicate 1 = 0.6
pll (pelle) [DRSC17026] → z-score, replicate 1 = -0.3
Nnk (Nicknack) [DRSC15274] → z-score, replicate 1 = -0.4
CG14218 [DRSC19575] → z-score, replicate 1 = -0.5
Or49a (Odorant receptor 49a) [DRSC07493] → z-score, replicate 1 = -0.3
Nprl2 (Nitrogen permease regulator-like 2) [DRSC20153] → z-score, replicate 1 = -0.5
Cpr65Az (Cuticular protein 65Az) [DRSC09882] → z-score, replicate 1 = -0.4
puml (pummelig) [DRSC06793] → z-score, replicate 1 = -0.3
CG4338 [DRSC15564] → z-score, replicate 1 = -0.2
CG17612 [DRSC00505] → z-score, replicate 1 = -0.2
CG13075 [DRSC09958] → z-score, replicate 1 = -0.4
Pld (Phospholipase D) [DRSC04854] → z-score, replicate 1 = -0.3
CG1789 [DRSC18140] → z-score, replicate 1 = 0.1
CG4741 [DRSC04485] → z-score, replicate 1 = -0.1
Acbp3 (Acyl-CoA binding protein 3) [DRSC11022] → z-score, replicate 1 = -0.2
CG13511 [DRSC04153] → z-score, replicate 1 = -0.4
CG32374 [DRSC10986] → z-score, replicate 1 = -0.4
CG4953 [DRSC02792] → z-score, replicate 1 = -0.2
